The target in assay [1] is Intra-melanosomal domain of human recombinant tyrosinase-related protein 2 (Tyrp2_(43tr), residues 1-474) (human) (UniProt P40126). The assay is described as follows: dynamic light scattering; Tyrp2 at 1 mg/mL in 50 mM Tris-HCl (pH 7.4), 1 mM EDTA, 150 mM NaCl, 50 µM TCEP, 25 °C; both purified.
For assay [2] the target is unchanged. The assay is described as follows: SEC; Superdex 200 Increase 10/300 GL, calibrated with Bio-Rad gel-filtration standards; Tyrp2 after IMAC and gel filtration; both purified.

Amino acid sequences for entries named in this document (tags omitted). Residues count along the entry.
UniProt P40126, residues 24-474: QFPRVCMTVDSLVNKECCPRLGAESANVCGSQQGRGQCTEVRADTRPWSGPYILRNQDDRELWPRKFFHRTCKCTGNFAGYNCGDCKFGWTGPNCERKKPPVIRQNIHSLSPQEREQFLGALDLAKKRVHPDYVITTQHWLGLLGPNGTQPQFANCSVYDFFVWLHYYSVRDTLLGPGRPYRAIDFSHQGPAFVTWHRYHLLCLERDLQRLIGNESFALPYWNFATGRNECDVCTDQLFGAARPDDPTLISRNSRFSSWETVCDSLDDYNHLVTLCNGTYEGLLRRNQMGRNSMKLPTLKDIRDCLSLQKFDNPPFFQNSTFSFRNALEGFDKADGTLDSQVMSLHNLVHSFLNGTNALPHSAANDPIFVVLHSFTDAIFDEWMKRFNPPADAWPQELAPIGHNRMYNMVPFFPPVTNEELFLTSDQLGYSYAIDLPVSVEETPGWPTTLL

Results are given in words; binding and its absence hold for the method and conditions named.

Take “Intra-melanosomal domain of human recombinant tyrosinase-related protein 2 (Tyrp2_(43tr), residues 1-474) (from UniProt P40126 24-474) (domain or fragment)”: the results for the binding result in assay [1] and in assay [2] were “no binding (tested: 1 mg/mL)” and “no binding”, respectively.

Source of the values: publication PMC8836267.
